The list does not hold the whole screen: it gathers tests that were run many times, whatever their T/C, doses with no T/C, and many T/C values between a quarter and a half above the control. Other doses and runs of a compound stand elsewhere. T/C: endpoint of the treated group in % of that of the vehicle group. Some doses have a count of surviving animals in place of a T/C: the source holds a T/C of zero for them, seemingly a mark for toxic or unscored doses. Some survivor counts are full or nearly so, which does not show that the dose was tolerated: survival well below the control is almost never listed, so the zero probably covers shortened survival too. Counts of survivors are from the toxicity check (mostly the fifth day) where no day follows; animals may have died later. Schedule codes are those of the source, read here as Q, the interval in days (D) or hours (H), X, the number of doses. Some entries hold several experiments; the results are listed from low to high. Where survival is the endpoint, this PubChem deposit counts one and a half times the control or more as active, and values a quarter to a half above the control carry no call in these data; other NCI protocols may use other cut-offs. Brackets with × say how often a value occurs here. Some T/C values are followed by the survivors on the day toxicity was checked, most often the fifth; without a count, all were alive then.
Tested on: P388 leukemia ip, CD2F1 mice, survival T/C
Test: NCI In Vivo Anticancer Drug Screen. Data for tumor model P388 Leukemia (intraperitoneal) in CD2F1 (CDF1) mice
Settings: T/C endpoint: median survival time, higher T/C = longer survival
[1] = dose: 200.0 mg/kg/injection, schedule: Q01DX005 (ip), vehicle: saline with Tween-80
[2] = dose: 100.0 mg/kg/injection, schedule: Q01DX009 (ip), vehicle: saline with Tween-80
[3] = dose: 200.0 mg/kg/injection, schedule: Q01DX009 (ip), vehicle: saline with Tween-80
[4] = dose: 100.0 mg/kg/injection, schedule: Q01DX001 (ip), vehicle: Klucel (hydroxypropylcellulose) (HPC)
[5] = dose: 400.0 mg/kg/injection, schedule: Q01DX001 (ip), vehicle: Klucel (hydroxypropylcellulose) (HPC)
[6] = dose: 100.0 mg/kg/injection, schedule: Q01DX009 (ip), vehicle: saline
[7] = dose: 200.0 mg/kg/injection, schedule: Q01DX009 (ip), vehicle: saline
[8] = dose: 50.0 mg/kg/injection, schedule: Q01DX009 (ip), vehicle: saline with Tween-80
[9] = dose: 50.0 mg/kg/injection, schedule: Q01DX005 (ip), vehicle: saline with Tween-80
[10] = dose: 100.0 mg/kg/injection, schedule: Q01DX005 (ip), vehicle: saline with Tween-80
[11] = dose: 400.0 mg/kg/injection, schedule: Q04DX003 (ip), vehicle: saline with Tween-80
[12] = dose: 400.0 mg/kg/injection, schedule: Q04DX003 (ip), vehicle: Klucel (hydroxypropylcellulose) (HPC)

With `CCN(CCO)CCNc1ccc(C)c2sc3cc(OC)ccc3c(=O)c12` the T/C [1] was 125 % of control and the survivor count (dose: 400.0 mg/kg/injection, schedule: Q01DX005 (ip), vehicle: saline with Tween-80) was 4 of 6.

For `CCN(CCCNc1cc(OC)cc2cccnc12)C(C)C`, the survivor count (dose: 50.0 mg/kg/injection, schedule: Q01DX005 (ip), vehicle: saline) was 0 of 5, the survivor count (dose: 100.0 mg/kg/injection, schedule: Q01DX005 (ip), vehicle: saline) was 0 of 5 and the survivor count (dose: 200.0 mg/kg/injection, schedule: Q01DX005 (ip), vehicle: saline) was 0 of 5.

`O=[N+]([O-])c1ccccc1NN=NCCCl` was tested, and the T/C (dose: 6.25 mg/kg/injection, schedule: Q01DX005 (ip), vehicle: Klucel (hydroxypropylcellulose) (HPC)) was 125 % of control, the T/C (dose: 12.5 mg/kg/injection, schedule: Q01DX005 (ip), vehicle: Klucel (hydroxypropylcellulose) (HPC)) was 125 and 134 % of control and the T/C (dose: 25.0 mg/kg/injection, schedule: Q01DX005 (ip), vehicle: Klucel (hydroxypropylcellulose) (HPC)) was 129 % of control. The survivor count (dose: 50.0 mg/kg/injection, schedule: Q01DX005 (ip), vehicle: Klucel (hydroxypropylcellulose) (HPC)) was 5 of 5, the survivor count (dose: 100.0 mg/kg/injection, schedule: Q01DX005 (ip), vehicle: Klucel (hydroxypropylcellulose) (HPC)) was 4 of 5 and the survivor count (dose: 200.0 mg/kg/injection, schedule: Q01DX005 (ip), vehicle: Klucel (hydroxypropylcellulose) (HPC)) was 4 of 5.

With `OC(Nc1nccs1)C(F)(F)F` (configuration not stated) the survivor count [2] was 1 of 6 and the survivor count [3] was 0 of 6.

With `Cc1nc2nc(N)nc(N)c2nc1Sc1ccc(Cl)cc1` the survivor count (dose: 100.0 mg/kg/injection, schedule: Q04DX003 (ip), vehicle: saline with Tween-80) was 6 of 6.

`O=[N+]([O-])c1ccccc1N/N=C\c1cccc2c(/C=N/Nc3ccccc3[N+](=O)[O-])c(Cl)n(-c3ccccc3)c12` was tested, and the survivor count [4] was 6 of 6 and the survivor count [5] was 6 of 6.

For `NCCNCC[OH2+].NCCNCC[OH2+].[Ni+2].[O-][Cl+3]([O-])([O-])[O-]`, the survivor count [6] was 2 of 6 and the survivor count [7] was 0 of 6.

In the case of `COc1nccn2c(C)nnc12`, the survivor count [5] was 0 of 6.

For `COc1ccc(C[n+]2cc([O-])on2)cc1`, the T/C [8] was 127 % of control, the T/C [2] was 127 % of control and the survivor count [2] was 0 of 6, 4 of 6, 5 of 6. For the same compound, the survivor count (dose: 150.0 mg/kg/injection, schedule: Q01DX009 (ip), vehicle: saline with Tween-80) was 2 of 6.

With `Cc1c(-c2ccccc2)ccnc1/C=N/NC(=S)NCCCN(C)C` the survivor count (dose: 100.0 mg/kg/injection, schedule: Q01DX009 (ip), vehicle: other) was 2 of 6 and the survivor count (dose: 200.0 mg/kg/injection, schedule: Q01DX009 (ip), vehicle: other) was 0 of 6.

In the case of `NCC(SSC(CN)C(=O)O)C(=O)O` (configuration not stated), the survivor count [6] was 6 of 6 and the survivor count [7] was 6 of 6.

With `Cc1cn(C2CC(N=[N+]=[N-])C(CO)O2)c(=O)[nH]c1=S` (configuration not stated) the survivor count [9] was 6 of 6, the survivor count [10] was 6 of 6 and the survivor count [1] was 6 of 6.

In the case of `CC1=C(C(=O)Nc2ccccc2)C(/C=C/c2ccccc2)C(C(=O)Nc2ccccc2)=C(C)N1`, the survivor count (dose: 100.0 mg/kg/injection, schedule: Q01DX001 (ip), vehicle: saline with Tween-80) was 6 of 6, the survivor count (dose: 200.0 mg/kg/injection, schedule: Q01DX001 (ip), vehicle: saline with Tween-80) was 6 of 6 and the survivor count (dose: 400.0 mg/kg/injection, schedule: Q01DX001 (ip), vehicle: saline with Tween-80) was 6 of 6.

In the case of `CNCCN=c1ccc2c3c1c(O)c1c(O)ccc(=O)c1c3[nH]n2CCNCCO`, the T/C (dose: 0.39 mg/kg/injection, schedule: Q04DX002 (ip), vehicle: water) was 145 % of control, the T/C (dose: 0.78 mg/kg/injection, schedule: Q04DX002 (ip), vehicle: water) was 147 % of control and the survivor count (dose: 25.0 mg/kg/injection, schedule: Q04DX002 (ip), vehicle: water) was 4 of 6. For the same compound, the survivor count (dose: 50.0 mg/kg/injection, schedule: Q04DX002 (ip), vehicle: water) was 0 of 6 and the survivor count (dose: 100.0 mg/kg/injection, schedule: Q04DX002 (ip), vehicle: water) was 1 of 6.

For `CC(=O)OC/C(C)=N\NS(=O)(=O)c1cc(Cl)c(Cl)cc1Cl`, the survivor count [7] was 6 of 6.

`O=C1CC2(C(=O)N1CN1CCN(c3ccc(F)cc3)CC1)c1ccccc1-c1ccccc12` (tested in a mixture with another compound) was tested, and the survivor count (dose: 200.0 mg/kg/injection, schedule: Q04DX003 (ip), vehicle: saline with Tween-80) was 1 of 6 and the survivor count [11] was 0 of 6.

In the case of `CS/C(=C1/C(=O)N(c2ccccc2)N=C1c1ccc(Br)cc1)N1CC1`, the survivor count [12] was 5 of 5.

`CCN(CC)N=Nc1ccc(NC(C)=O)cc1` was tested, and the survivor count (dose: 25.0 mg/kg/injection, schedule: Q04DX003 (ip), vehicle: Klucel (hydroxypropylcellulose) (HPC)) was 3 of 6, the survivor count (dose: 50.0 mg/kg/injection, schedule: Q04DX003 (ip), vehicle: Klucel (hydroxypropylcellulose) (HPC)) was 0 of 6 and the survivor count (dose: 100.0 mg/kg/injection, schedule: Q04DX003 (ip), vehicle: Klucel (hydroxypropylcellulose) (HPC)) was 0 of 6 and 2 of 6. The survivor count (dose: 200.0 mg/kg/injection, schedule: Q04DX003 (ip), vehicle: Klucel (hydroxypropylcellulose) (HPC)) was 0 of 6 and the survivor count [12] was 0 of 6.

For `COC1c2ccccc2C=CN1C#N` (configuration not stated), the survivor count (dose: 200.0 mg/kg/injection, schedule: Q01DX005 (ip), vehicle: distilled water + Tween-80 + alcohol) was 0 of 6.

For `CN1CCC(=C2c3ccccc3CC(O)c3sccc32)CC1` (configuration not stated), the survivor count [11] was 2 of 6.

In the case of `CCOCc1nc(N)nc(N)c1-c1cccc(Cl)c1`, the survivor count (dose: 240.0 mg/kg/injection, schedule: Q01DX005 (ip), vehicle: saline with Tween-80) was 3 of 6.

With `O=[N+]([O-])c1ccc2c3c(ccc([N+](=O)[O-])c13)CC2` the survivor count (dose: 100.0 mg/kg/injection, schedule: Q01DX009 (ip), vehicle: Klucel (hydroxypropylcellulose) (HPC)) was 6 of 6, the survivor count (dose: 200.0 mg/kg/injection, schedule: Q01DX009 (ip), vehicle: Klucel (hydroxypropylcellulose) (HPC)) was 6 of 6 and the survivor count (dose: 400.0 mg/kg/injection, schedule: Q01DX009 (ip), vehicle: Klucel (hydroxypropylcellulose) (HPC)) was 6 of 6.

In the case of `CN1/C(=C/C2=C([O-])C(=C/C3=[N+](C)c4ccccc4C3(C)C)/C2=O)C(C)(C)c2ccccc21`, the survivor count (dose: 240.0 mg/kg/injection, schedule: Q01DX005 (ip), vehicle: Klucel (hydroxypropylcellulose) (HPC)) was 5 of 6.

For `CN1CCC(=C2c3ccccc3CCc3sccc32)CC1`, the survivor count [7] was 0 of 6.

In the case of `O=C1c2ccccc2C(=Cc2cccnc2)c2ccccc21`, the survivor count [8] was 6 of 6, the survivor count [2] was 6 of 6 and the survivor count [3] was 6 of 6.

In the case of `O=C(/C=C/c1ccc(OCc2ccccc2)cc1)c1ccc(C(F)(F)F)cc1`, the survivor count [2] was 6 of 6.

With `CC(NNC(=S)N1CCCC1)c1cc2ccccc2cn1` (configuration not stated) the T/C [9] was 133 % of control, the T/C [10] was 135 % of control (2×) and the survivor count [1] was 0 of 6, 2 of 6, 5 of 6.

For `Cn1c(O)c(N=NC(=S)NC(=O)C23CC4CC(CC(C4)C2)C3)c2ccccc21`, the survivor count (dose: 12.5 mg/kg/injection, schedule: Q01DX005 (ip), vehicle: saline with Tween-80) was 6 of 6, the survivor count (dose: 25.0 mg/kg/injection, schedule: Q01DX005 (ip), vehicle: saline with Tween-80) was 6 of 6 and the survivor count [9] was 6 of 6. For the same compound, the survivor count [10] was 6 of 6.

With `O=C1CN(c2cccc(C(F)(F)F)c2)C(=O)CN1/N=C/c1ccco1` the survivor count [10] was 6 of 6 and the survivor count [1] was 6 of 6.

`CC(=O)CC(C)=O.CC(=O)CC(C)=O.c1cc[c]([Sn][c]2ccccc2)cc1` was tested, and the T/C [4] was 149 % of control [5 of 6 alive], the T/C (dose: 200.0 mg/kg/injection, schedule: Q01DX001 (ip), vehicle: Klucel (hydroxypropylcellulose) (HPC)) was 140 % of control and the survivor count [5] was 0 of 6.

`ClCC1=NC2CCCCC2N1` (configuration not stated) was tested, and the survivor count [1] was 3 of 5.
